This is one part of the list. Shown are side measurements of this screen, not its main read-out; they come without a call. Most of these compounds were active or inconclusive in the main read-out, so they are no random draw. The note in brackets gives the kind of curve behind each potency; many fits are weak.
Experiment: qHTS Assay for Lipid Storage Modulators in Drosophila S3 Cells;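 as to cell number change: cells counted by Cell Tracker Red CMTPX staining in the red channel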
Conditions: BODIPY lipid droplet fluorescence, 18-24 h; for cell number change: measured here: cell count max response, cells fed with added oleic acid
Outline: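 Laser-scanning cytometry quantifies lipid droplet accumulation (500–530 nm total intensity; droplet/cell object ratio) in oleic acid-fed (400 uM added) Drosophila S3 cells treated with a concentration series. 20 uM Triacsin C defined 100% inhibition.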

[1] = measured here: lipid fluorescence (Fed channel) AC50, cells fed with added oleic acid
[2] = measured here: cell number channel AC50, cells fed with added oleic acid

## Cc1ccc(-n2nc3c(=O)n(CCCC(=O)NCc4ccccc4F)nc(C)c3c2C)cc1
  cell number change: 11.5%
[1]
  AC50: 0.13 µM [rising, full curve, poor fit]

## O=C(CSc1nc2ccncc2[nH]1)Nc1ccccc1C(F)(F)F
  cell number change: -24.4%

## O=C(COc1ccc(Br)cc1)N1CCN(c2ncccn2)CC1
  cell number change: -0.111%
[1]
  AC50: 0.082 µM [falling, full curve, poor fit]

## Cc1ccc(Nc2ccc(C(=O)NCCc3ccccc3)cn2)cc1
  cell number change: 8.64%
[1]
  AC50: 5.8 µM [rising, full curve, poor fit]

## COc1cccc(C(=O)N2CCN(Cc3ccc(OC)cc3OC)CC2)c1
  cell number change: 13.8%

## CN1CCN(C(=O)c2ccccc2NS(=O)(=O)c2ccc(F)cc2)CC1
  cell number change: -5.94%
[1]
  AC50: 1.84 µM [rising, single point]

## c1coc(Cn2nnnc2CN2CCN(C3CCCC3)CC2)c1
  cell number change: -16.6%
[1]
  AC50: 25.9 µM [falling, single point]

## COc1ccc(C(=O)/C=C/Nc2ccccn2)cc1
[2]
  AC50: 4.11 µM [rising, partial curve, poor fit]
[1]
  AC50: 4.61 µM [rising, full curve, poor fit]

## CCOC(=O)c1ccc(NC(=O)Oc2ccccc2)cc1
  cell number change: -8.71%
[1]
  AC50: 32.6 µM [falling, single point]

## Cc1nn(CC(=O)N(C)C)c(C)c1S(=O)(=O)N1CCOCC1
  cell number change: -0.278%
[2]
  AC50: 0.092 µM [rising, full curve, poor fit]

## c1ccc(-c2nccc(-c3ccc4c(c3)OCO4)n2)cc1
[2]
  AC50: 0.184 µM [rising, full curve, poor fit]
[1]
  AC50: 0.291 µM [rising, partial curve, poor fit]

## CCO[C@H]1OC(C(=O)Nc2ccccc2)=C[C@@H](c2ccc(C(F)(F)F)cc2)[C@@H]1CCCO
  cell number change: -9.14%
[1]
  AC50: 29.1 µM [falling, single point]

## N=C1/C(=C/c2ccc(-c3cccc(C(=O)O)c3)o2)C(=O)N=C2SC=C(c3ccccc3)N12
  cell number change: -8.27%
[2]
  AC50: 0.0206 µM [falling, full curve, poor fit]
[1]
  AC50: 3.26 µM [falling, single point]

## O=C(OCC(=O)N1CCCc2ccccc21)c1ccc(C(F)(F)F)cc1
  cell number change: -17.2%
[1]
  AC50: 3.66 µM [falling, single point]

## CCOC(=O)N1CCN(c2nc(C)c3c(n2)CCCC3=O)CC1
[1]
  AC50: 1.16 µM [falling, full curve]

## O=C(Cn1c(-c2ccc(Cl)cc2)noc1=O)N1CCN(c2ccccc2F)CC1
  cell number change: -6.98%
[1]
  AC50: 0.13 µM [falling, full curve, poor fit]

## c1ccc2c(c1)OCC(c1csc3ncnc(N4CCOCC4)c13)O2 (stereo not drawn)
  cell number change: 24.1%

## CC(/C=C/c1ccco1)=N\NC(=O)C(O)c1ccccc1 (stereo not drawn)
  cell number change: -7.06%
[1]
  AC50: 1.84 µM [rising, partial curve]

## O=C(CSc1ccc2c(c1)OCCO2)Nc1ccc(Cl)cn1
  cell number change: -0.65%
[1]
  AC50: 3.66 µM [rising, single point]

## COc1ccc(CCNc2cc(N3CCN(C(=O)c4ccc(C)cc4)CC3)ccc2[N+](=O)[O-])cc1OC
  cell number change: 13.5%
[2]
  AC50: 6.51 µM [falling, single point]
[1]
  AC50: 6.51 µM [falling, single point]

## COC(c1ccccc1)c1nnc(CCC(=O)NCCC(C)C)o1 (stereo not drawn)
  cell number change: -31.5%
[2]
  AC50: 8.2 µM [falling, partial curve, poor fit]
[1]
  AC50: 16.4 µM [falling, single point]

## Cc1ccccc1NC(=O)COc1coc(CN2CCN(Cc3ccccc3)CC2)cc1=O
[2]
  AC50: 6.51 µM [falling, single point]
[1]
  AC50: 0.00411 µM [rising, full curve, poor fit]

## Cc1ccc(NC(=O)c2oc3c(c2C)C(=O)CC(C)(C)C3)cc1
  cell number change: 11.7%
[1]
  AC50: 6.51 µM [rising, single point]

## NC(=O)C1CCN(C(=O)c2ccc(Oc3ccccc3)cc2)CC1
[1]
  AC50: 0.116 µM [falling, full curve, poor fit]

## COc1ccc(Br)cc1CN(C)CC(O)COc1ccc(Br)cc1 (stereo not drawn)
  cell number change: 3.81%

## Cc1nc2c(sc(=S)n2Cc2ccco2)c(=O)n1CC(=O)Nc1ccccc1F
  cell number change: 7.03%
[1]
  AC50: 18.4 µM [rising, single point]

## CCOc1ccc(-n2c(Cc3cc(=O)[nH]c(=O)[nH]3)nnc2SCc2cccnc2)cc1
  cell number change: -3.29%
[1]
  AC50: 1.84 µM [falling, partial curve]

## O=C(COC(=O)c1ccccn1)NC1CCCCC1
  cell number change: 7.36%
[2]
  AC50: 6.51 µM [rising, single point]

## O=c1[nH]c(/C=C\c2cccc(C(F)(F)F)c2)nc(O)c1[N+](=O)[O-]
  cell number change: -4.56%
[1]
  AC50: 0.116 µM [rising, full curve, poor fit]

## C=CCn1c(SCc2c(C(=O)OC)sc(N)c2C(=O)OC)nnc1-c1ccc(Br)cc1
  cell number change: 85.1%
[2]
  AC50: 1.84 µM [rising, partial curve, poor fit]
[1]
  AC50: 14.6 µM [rising, partial curve, poor fit]

## N#CCc1ccc(NS(=O)(=O)c2cccs2)cc1
  cell number change: -22.4%
[1]
  AC50: 29.1 µM [falling, single point]

## Cc1ccc(Nc2nnc(SCC(=O)Nc3cc(C(=O)O)ccc3C)s2)c(C)c1
  cell number change: -41.7%
[2]
  AC50: 16.4 µM [falling, single point]

## COc1cc(NC(=S)N2CCN(CCO)CC2)c(OC)cc1Cl
  cell number change: -13.5%
[1]
  AC50: 0.326 µM [rising, partial curve]

## O=C1N(CN2CCOCC2)c2ccccc2C12OCC(CCl)O2 (stereo not drawn)
  cell number change: 1.39%
[1]
  AC50: 0.082 µM [rising, full curve, poor fit]

## NC1=NC(=O)/C(=C/c2ccc(OCC(=O)O)cc2)S1
  cell number change: 7.79%
[1]
  AC50: 2.91 µM [rising, single point]

## N#CCCn1c(C2CCCCC2)nc2ccccc21
  cell number change: 11.3%
[1]
  AC50: 0.146 µM [falling, full curve, poor fit]

## COc1cccc(C(C)NC(=O)Nc2ccccc2Cl)c1 (stereo not drawn)
  cell number change: -19%
[1]
  AC50: 29.1 µM [falling, single point]

## CC(C)CCC(C)N=Cc1c(O)n(Cc2ccccc2)c(=O)c2ccccc12 (stereo not drawn)
  cell number change: 40.5%
[2]
  AC50: 7.31 µM [rising, partial curve]

## NS(=O)(=O)c1ccc(CCN=Cc2ccccc2O)cc1
  cell number change: -13.6%
[1]
  AC50: 0.366 µM [falling, full curve, poor fit]

## CC(=O)c1ccc(N2CCN(CC(=O)Nc3cc(C)on3)CC2)cc1
  cell number change: 31.5%
[2]
  AC50: 16.4 µM [rising, single point]
[1]
  AC50: 14.6 µM [rising, single point]

## C/C(=N\Nc1cccc(Cl)c1)c1ccncc1
[2]
  AC50: 2.31 µM [rising, single point]
[1]
  AC50: 3.26 µM [rising, single point]

## O=C(Cc1ccccc1[N+](=O)[O-])NCCCN1CCOCC1
  cell number change: 114%
[2]
  AC50: 23.1 µM [rising, single point]

## Cc1cc(=O)n2nc(N3CCCC(C(=O)NCCc4ccc(Cl)cc4)C3)sc2n1 (stereo not drawn)
[1]
  AC50: 6.51 µM [falling, single point]

## NNC(=O)c1ccc(CSc2nc3ccccc3s2)cc1
  cell number change: 9.33%

## CSc1nc(Oc2ccc3ccccc3c2)c2sccc2n1
  cell number change: 17.3%

## Cc1cccc(C)c1NC(=O)CNC(=O)Cc1ccccc1[N+](=O)[O-]
  cell number change: 11.7%
[1]
  AC50: 0.58 µM [falling, partial curve, poor fit]

## Cc1c(NC(=O)c2cccc(NC(=O)Cc3ccccc3F)c2)c(=O)n(-c2ccccc2)n1C
  cell number change: 6.41%
[1]
  AC50: 0.231 µM [rising, full curve, poor fit]

## COc1ccc(-c2cc(=O)oc3c(C)c(OCC(=O)N[C@@H](Cc4ccc(O)cc4)C(=O)O)ccc23)cc1
  cell number change: -6.4%

## Cc1ccccc1-c1nnc(-c2ccc(Cl)cc2)o1
  cell number change: 90.9%
[2]
  AC50: 16.4 µM [rising, partial curve, poor fit]

## CCN(CC(=O)NCc1ccccn1)S(=O)(=O)c1ccc(OC)cc1
  cell number change: 2.94%
[1]
  AC50: 6.51 µM [falling, single point]

## N#Cc1ccsc1NC(=O)C1CCN(C(=O)c2ccc(Cl)cc2)CC1
  cell number change: 54.9%
[2]
  AC50: 29.1 µM [rising, single point]

## FC(F)(F)c1ccc(N2CCN(c3ncnc4c3nnn4Cc3ccccc3)CC2)nc1
  cell number change: -0.444%
[2]
  AC50: 0.58 µM [falling, full curve, poor fit]
[1]
  AC50: 0.92 µM [rising, partial curve]

## COc1ccc(S(=O)(=O)Nc2cc3c4c(c2)CCN4C(=O)CC3)cc1C
  cell number change: 40.1%

## CC(Nc1nc2ccccc2n2cnnc12)c1ccccc1 (stereo not drawn)
[1]
  AC50: 0.103 µM [falling, full curve, poor fit]

## Cc1cc(NC(=O)c2c(-c3ccccc3Cl)noc2C)no1
  cell number change: 2.65%
[1]
  AC50: 16.4 µM [rising, partial curve]

## COc1ccc(CCN2C(=O)C3C4C=CC(C3C2=O)C2C(=O)N(CCc3ccc(OC)c(OC)c3)C(=O)C42)cc1OC (stereo not drawn)
  cell number change: 13.1%
[2]
  AC50: 0.0058 µM [rising, full curve, poor fit]
[1]
  AC50: 29.1 µM [rising, partial curve]

## COc1ccc(N2CCOCC2)c(NC(=O)c2cccnc2)c1
  cell number change: 22.7%
[1]
  AC50: 6.51 µM [falling, single point]

## CC(C)CNC(=O)C1CCN(CC2CCCCC2)CC1
  cell number change: 17.5%
[1]
  AC50: 2.59 µM [rising, full curve]

## COc1cc([N+](=O)[O-])ccc1NC(=O)COC(=O)C=C(C)C
  cell number change: 72.5%
[2]
  AC50: 6.51 µM [rising, partial curve]

Reference: PubChem BioAssay AID2685 (National Center for Advancing Translational Sciences (NCATS), 2010)
